# Measured values from PubChem BioAssay AID2685 (National Center for Advancing Translational Sciences (NCATS), 2010).
# The other results are listed elsewhere or left out. The main result of the screen is listed elsewhere. These columns were measured beside it and carry no call. Most of these compounds were active or inconclusive in the main read-out, so they are no random draw. The note in brackets gives the kind of curve behind each potency; many fits are weak.
# Assay: qHTS Assay for Lipid Storage Modulators in Drosophila S3 Cells;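 for cell number change: cells counted by Cell Tracker Red CMTPX staining in the red channel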
# Details: BODIPY lipid droplet fluorescence, 18-24 h; for cell number change: measured here: cell count max response, cells fed with added oleic acid
# In short: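 Drosophila S3 cells loaded with oleic acid (400 uM, as added) and compounds at several concentrations; lipid droplets imaged by 488-nm laser-scanning cytometry, 500–530 nm intensity and object ratio to cell channel. Percent activity normalized to 20 uM Triacsin C.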
# [1] = measured here: lipid fluorescence (Fed channel) AC50, cells fed with added oleic acid
# [2] = measured here: cell number channel AC50, cells fed with added oleic acid
SMILES,cell number change [%],AC50 [1],AC50 [2]
COc1ccc(N2Cc3cccc(C(=O)N4CCOCC4)c3C2=O)cc1,-7.72,–,–
CC(C)c1cc(C(=O)Nc2cccc(Cl)c2)no1,-4.46,"6.51 µM [rising, partial curve]",–
CCOC(=O)c1[nH]c(C)c(C(=O)Nc2cc(OC)ccc2OC)c1C,99.8,"18.4 µM [rising, single point]","18.4 µM [rising, single point]"
CCC(C)NS(=O)(=O)c1ccc(OCC(=O)NCc2ccco2)cc1 (stereo not drawn),-12.4,"14.6 µM [rising, partial curve]",–
COC(=O)c1ccc(N/C=C/C(=O)c2ccccc2)cc1,11.4,"4.11 µM [rising, single point]",–
O=[N+]([O-])c1cc(/C=N/O)ccc1SCc1ccccc1,6.82,"29.1 µM [rising, single point]",–
COC(=O)c1cc(=O)n(CCc2ccc(OC)c(OC)c2)c(=Nc2ccc(F)c(Cl)c2)s1,-26.5,"16.4 µM [falling, partial curve]",–
O=S(=O)(c1cccc(C(F)(F)F)c1)N1CCN(c2ccccc2)CC1,24.4,"29.1 µM [rising, single point]",–
CCN(CC(=O)Nc1ccc(N2CCOCC2)cc1)C(=O)c1ccc(C(F)(F)F)cc1,–,–,"0.82 µM [falling, full curve]"
O=C(NCCc1ccc(Cl)cc1)c1ccc2nc(N3CCOCC3)sc2c1,-10.2,–,–
COc1ccc(CNC(=O)/C=C/c2cc([N+](=O)[O-])ccc2OC(F)F)cc1OC,9.18,"2.31 µM [falling, partial curve]",–
COc1ccc(Cl)cc1NC(=O)CN1CCC(n2nnc3cc(C)ccc32)CC1,3.52,–,–
Cc1cccc(-c2nc(-c3ccncc3)no2)c1,-3.57,"5.8 µM [rising, partial curve]",–
COC(=O)Nc1ccc(S(=O)(=O)N2CCCC(C(=O)N3CCN(C)CC3)C2)cc1 (stereo not drawn),21.6,"29.1 µM [rising, single point]",–
CC(C)OC(=O)CC(=O)CSc1nc2c(cc1C#N)CCC2,-1.7,"7.31 µM [rising, partial curve]","0.00461 µM [falling, full curve, poor fit]"
COC(=O)NC1c2ccccc2Oc2ccc(C)cc21 (stereo not drawn),14.2,–,–
CC(C)Cc1nc2oc3c(Cl)ncnc3c2c2c1CCC2,47.8,"6.51 µM [falling, single point]","0.206 µM [rising, partial curve]"
O=C(NCCN1CCCC1=O)Nc1ccccc1,-10.1,–,–
CCNC(=S)NCCN1CCCCC1,1.38,"0.58 µM [falling, full curve]",–
CCC(O)(c1ccccc1)C(CN1CCOCC1)c1ccccc1 (stereo not drawn),-11.1,–,–
CC(=O)Nc1ccc(S(=O)(=O)N/N=C/c2cccnc2)cc1,12.2,–,–

SMILES,cell number change [%],AC50 [1],AC50 [2]
CNc1nc(N/N=C/c2ccc([N+](=O)[O-])cc2)nc(Nc2ccccc2)n1,7.72,"20.6 µM [falling, partial curve, poor fit]",–
COc1cc(C(=O)N2CCN(C(=O)c3ccccc3)CC2)cc(OC)c1OC,156,–,"18.4 µM [rising, partial curve]"
Cc1ccc(NC(=S)NN2CCN(C)CC2)c(C)c1,2.9,"25.9 µM [rising, single point]",–
CCOC(=O)c1c(NC(=S)NC(=O)c2ccco2)sc2c1CCCC2,1.93,–,–
Cc1ccnc(NS(=O)(=O)c2cc(C(F)(F)F)ccc2Cl)c1,32.4,"29.1 µM [rising, single point]","0.58 µM [falling, single point]"
CCn1c(C(C)NC(=O)c2cccs2)nc2ccccc21 (stereo not drawn),80.2,–,"25.9 µM [rising, single point]"
CN(C1CCCCC1)S(=O)(=O)CCNC(=O)c1ccccc1,13,"0.13 µM [falling, full curve, poor fit]",–
COC(=O)C1CCN(C(=O)CSc2nc3ccc(OC)cc3[nH]2)CC1,37.6,"0.291 µM [rising, partial curve, poor fit]","0.146 µM [rising, full curve, poor fit]"
Cc1cc2nc(C)n(CCCNC(=O)Nc3ccc(F)cc3)c2cc1C,–,"0.326 µM [rising, partial curve, poor fit]",–
CC(=O)N1CCc2cc(S(=O)(=O)NC(Cc3ccccc3)C(=O)Nc3cc(C)ccn3)ccc21 (stereo not drawn),-1.46,–,–
CCOC(=O)C(N)CSC1CC(=O)N(c2ccc(OC)cc2)C1=O (stereo not drawn),–,"2.31 µM [falling, partial curve]",–
COc1ccc(C2=NS(=O)(=O)N(C)C(C(=O)NC3CCCC3)=C2)cc1,18.2,–,–
CCCCC(CC)C(=O)Nc1cc(C(=O)NCc2ccc(C)cc2)ccc1N1CCC2(CC1)CC(c1cccc(Br)c1)=NO2 (stereo not drawn),23.1,"2.06 µM [rising, partial curve, poor fit]",–
Cc1cccc(N2CCC(N3CCN(C4CCCCC4)C(CCO)C3)CC2)c1C (stereo not drawn),-22.5,–,–
O=C(COC(=O)c1ccc(Cl)nc1)Nc1cccc(S(=O)(=O)N2CCCCC2)c1,-27.4,"3.66 µM [falling, partial curve, poor fit]","6.51 µM [falling, single point]"
CC(=O)c1cc2ccccc2oc1=O,9.89,"0.116 µM [rising, full curve, poor fit]",–
CN(C)Cc1cnc2ccc(Cl)cn12,16.6,"29.1 µM [rising, single point]",–
COc1cc(C(=O)NC(=S)Nc2ccc(Cl)c(C(=O)O)c2)cc(OC)c1OC,36.2,–,"29.1 µM [rising, single point]"
COc1ccccc1C(=O)N/C(=C/c1ccc(Br)cc1)C(=O)N1CCCC1,16.6,–,–
O=C(COC(=O)c1cc([N+](=O)[O-])ccc1N1CCOCC1)Nc1c(Cl)cccc1Cl,–,"14.6 µM [rising, partial curve]","6.51 µM [rising, single point]"
O=C(O)C1CC(=O)N(Cc2ccccc2)C1 (stereo not drawn),-4.15,–,–

SMILES,cell number change [%],AC50 [1],AC50 [2]
COc1cccc(/C=C2\SC(=O)N(CCC(=O)NCCCn3ccnc3)C2=O)c1,-18.5,"6.51 µM [falling, single point]",–
Cc1cccc(OCC(=O)Nc2ccncc2)c1C,-20.1,"0.651 µM [falling, partial curve, poor fit]","2.06 µM [falling, single point]"
CC(=O)c1ccc(NC(=O)CCCC(=O)c2ccccc2)cc1,9.69,"14.6 µM [rising, partial curve, poor fit]",–
Cc1cc(C)c(S(=O)(=O)Nc2nccs2)c(C)c1,15.2,–,–
COCCNC(=O)CN(C(=O)CCC(=O)Nc1nccs1)c1ccccc1OC,63.8,"4.11 µM [rising, single point]","23.1 µM [rising, partial curve]"
COC(=O)C(Cc1c[nH]c2ccccc12)NC(=O)c1cc(-c2ccc(OC)c(OC)c2)oc1C (stereo not drawn),-23.2,"29.1 µM [falling, single point]",–
Cc1nn(C2CCS(=O)(=O)C2)c(Cl)c1/C=C/C(=O)OCC(N)=O (stereo not drawn),-4.79,"0.92 µM [falling, full curve]",–
CCc1ccnc(NC(=O)NS(=O)(=O)c2ccc(C)cc2)c1,17.8,"4.11 µM [falling, partial curve, poor fit]",–
CCn1c(COc2ccccc2OC)nnc1SCC(=O)NC1CCCC1,-5.41,"0.13 µM [falling, full curve, poor fit]",–
CC1CCC2(CC1)NC(=O)N(Cc1nnc(-c3cccs3)o1)C2=O (stereo not drawn),78.4,–,"18.4 µM [rising, single point]"
CCCCC1=CC2=C(c3ccco3)C(=O)C(C)(OC(=O)c3ccc(OC)cc3)C(=O)C2=CN1c1ccc(OC)cc1 (stereo not drawn),-55.5,"18.4 µM [falling, single point]","18.4 µM [falling, single point]"
COCCn1c(SCC(=O)Nc2ccc(NC(C)=O)cc2)nc2ccccc2c1=O,184,"29.1 µM [rising, partial curve]","29.1 µM [rising, partial curve]"
COc1ccc(Cc2nc(C)cc(Cl)n2)cc1[N+](=O)[O-],-11,–,–
CCc1nnc(NC(=O)c2ccc(N3C(=O)CCC3=O)cc2)s1,–,–,"6.51 µM [falling, single point]"
CCCCC1CCC(C(=O)Nc2ccccc2)CC1 (stereo not drawn),-13.1,"0.291 µM [falling, full curve]",–
CC(Cc1cccs1)NC(=S)Nc1ccccc1 (stereo not drawn),-39.7,"4.61 µM [rising, single point]","32.6 µM [falling, single point]"
Cc1cccc(NS(=O)(=O)c2nnc(NC(=O)C3CCCCC3)s2)c1,-15.6,–,–
COc1cccc(C2=NN(C(=O)c3ccc(C)o3)C(O)(C(F)(F)F)C2)c1 (stereo not drawn),-13.9,"20.6 µM [falling, single point]",–
COc1ccc(-n2cnnc2SCC(=O)N(C)C2CCS(=O)(=O)C2)cc1 (stereo not drawn),18.1,"16.4 µM [rising, single point]",–
O=S(=O)(NC(=NC1CCCC1)C(F)(F)F)c1ccccc1,-1.56,"0.731 µM [rising, full curve]",–
COc1cc(NS(=O)(=O)c2ccc(NC(C)=O)cc2)nc(OC)n1,-63.1,"4.11 µM [falling, full curve]","4.11 µM [falling, full curve]"

# Individual results from above.
# In cell number change [%], COc1cc(C(=O)N2CCN(C(=O)c3ccccc3)CC2)cc(OC)c1OC shows 156
# In AC50 [1], Cc1nn(C2CCS(=O)(=O)C2)c(Cl)c1/C=C/C(=O)OCC(N)=O (stereo not drawn) shows 0.92 µM [falling, full curve]

# One compound at a time, as listed above. Order of values: cell number change [%]	AC50 [1]	AC50 [2]
# COc1cc(C(=O)N2CCN(C(=O)c3ccccc3)CC2)cc(OC)c1OC is entered as 156	–	18.4 µM [rising, partial curve]
# CC(=O)c1ccc(NC(=O)CCCC(=O)c2ccccc2)cc1 is entered as 9.69	14.6 µM [rising, partial curve, poor fit]	–
# O=S(=O)(NC(=NC1CCCC1)C(F)(F)F)c1ccccc1 is entered as -1.56	0.731 µM [rising, full curve]	–
